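Whole-parasite assay of Trypanosoma brucei over 72 hours; the read-out is not stated. Compounds at 30 µM. Direction is inferred from retests: higher values go with stronger inhibition. Values scatter widely below zero; nearly all retest evidence comes from the higher of the two concentrations used. Of about 64,000 compounds tested this way, about 940 (1.5%) reached 50% or more in at least one test.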

Each number is a percent effect as filed. The record does not define 0% and 100%; most values in the screen are far below 50% and negative numbers occur (in some assays of this library far below -100). The compounds are a random part of those screened.

SMILES,percent effect
CCN(CC1CN(CC2CCC2)CCO1)c1cccnn1 (stereo not given),14.03
O=C1CCC2(CCN(Cc3cc(F)cc(F)c3)CC2)CN1CCO,-4.741
O=C(NCc1cccnc1)C1=NOC2(CCN(C3CCOCC3)C2)C1 (stereo not given),-18.27
O=C(c1cncc(F)c1)N1CCC(c2ncc[nH]2)CC1,-0.8789
CCN(CC)C(=O)Cn1ccc2cc(NC(=O)C3CCCCC3)ccc21,-36.05
CCN(Cc1cscn1)CC1(C)Cc2c(N)nc(N)nc2O1 (stereo not given),20.22
[H][C@]12CC[C@]([H])(CN(c3ccnc(SC)n3)C1)N(CC1CCC1)C2=O,-59.3
CCc1nc(CN2CCN(C(=O)CCc3ccccc3)CC2)cs1,4.739
COc1ccccc1CNc1ncc(-c2cc(C)no2)c(C(C)C)n1,-4.15
Cc1ncc(CNC(=O)c2oc3ccccc3c2CN(C)C)s1,-6.17
Cc1nc(C)n(CC2CCCCN2c2ncnc3ccsc23)n1 (stereo not given),7.835
CCC1CCCCCN1C(=O)c1ccc(N2CCC(O)CC2)cc1 (stereo not given),-16.88
CCn1nc2c(cc1=O)CN(CC(=O)Nc1cc(C(C)C)no1)CC2,-29.4
COc1ccc(-n2cccn2)c(CN2CCC3(CCCNC3)C2)c1 (stereo not given),15.6
Cc1ncc2c(n1)CN(CCCc1nc3ccccc3o1)CC2,0.2583
CC(C)(C)N1CC(C(=O)N2CC(Oc3ccc(F)cc3)C2)CC1=O (stereo not given),-15.46
[H][C@@]12COC[C@@H](C(=O)Nc3cnccn3)[C@]1([H])CN(c1ncc(F)cn1)C2,-49.8
Cc1c(I)cccc1C(=O)NCC1(CO)CC1,12.1
COCC1c2nnn(CC3CC3)c2CCN1C(=O)CS(C)(=O)=O (stereo not given),-187.7
COc1cccc(CN2CCC3(CC(Nc4ccncn4)C3)C2)c1F (stereo not given),-0.01345
CN(CC(=O)N(C)C1CCCCC1)Cc1nc2c(cnn2C)c(=O)[nH]1,-4.118
Cc1cccc(N2CCN(C(=O)CN3CCC(C(N)=O)CC3)CC2)c1,-46.42
NC(=O)c1ccccc1-n1cc(-c2cccc(C(=O)O)c2)cn1,5.234
CCc1cc(C(=O)N2CCCC2c2nc(C)c(F)c(O)n2)on1 (stereo not given),-16.76
N#Cc1ccc(SCCC(=O)Nc2ccc(CC(N)=O)cc2)cc1,-32.16
CNc1cc(CNC(=O)c2ccnc(OC)c2)nc(-c2ccncc2)n1,-1.316
O[C@H]1[C@H](NCCc2cnccn2)c2ccccc2C12CCNCC2,2.17
NC(=O)C1CCCN(C(=O)c2ccn(-c3ccc(F)cc3)n2)C1 (stereo not given),-14.38
CN(Cc1ccccc1)C1(C(=O)NC(C)(C)CO)Cc2ccccc2C1,-15.22
Cc1noc(C)c1CS(=O)(=O)CC(=O)NCCc1ccccc1,-20.47
CNC(=O)CN1CCC(CN(C)CCSc2ccccc2)CC1,-42.78
COc1ccc2nnc(CCCC(=O)NCc3ccccc3OC)n2n1,-1.024
Cc1nc(C)c(C(=O)N2CCc3[nH]nc(COc4ccccc4)c3C2)s1,-14.45
CN1CCN(C(=O)c2ccc(Cn3cc(Br)cn3)cc2)CC1,12.02
CCC(C)N(Cc1ccncc1)Cc1cccc(Cn2cccn2)c1 (stereo not given),12.05
CCc1oc(C(=O)NC(C)c2ncn[nH]2)cc1CN1CCCC1 (stereo not given),-52.81
Cn1cc(Br)cc(NC(=O)CC2CCC2)c1=O,-26.59
[H][C@]12CC[C@@]3(N=C(CC)N(CC(C)C)C3=O)[C@@]1([H])CN(S(C)(=O)=O)C2,-45.92
Cc1ncc2c(n1)CCN(Cc1ncc(C(C)(C)C)o1)C2,-570.1
CC(C)CCN(C)C(=O)c1cnc2c(cnn2CC(C)C)c1,-39.69
CC(C)C1CN(C(=O)c2cccs2)CCS1 (stereo not given),-40.65
O=C(Nc1cc(-c2cccnc2)no1)C1CCC1,0.7953
[H][C@@]12CN(CCCc3ccccc3)C[C@]1([H])OCC(=O)N2CCOC,5.21
CN1CCN(S(=O)(=O)NCC2COc3ccccc3C2)CC1 (stereo not given),11.32
O=C(O)C(F)(F)F.[H][C@@]12CCN(C3CCCC3)C[C@]1([H])[C@H](C(=O)NC1CCC1)CCO2,-6.349
[H][C@@]12C[C@H](NC(=O)c3nc4ccccc4[nH]3)CN1CCN(C)C2,1.105
CCOC(=O)C1CCN(CCCc2nnnn2-c2ccccc2)CC1,-32.79
Cc1cc(C)n(Cc2cc(C(=O)N3CCCCC3c3nccs3)n[nH]2)n1 (stereo not given),-44.94
CN1CCCn2c(nc(CNS(=O)(=O)C3CC3)cc2=O)C1.O=C(O)C(F)(F)F,-29.83
O=C(NC1CC1)C1=CC2(CCN(CC3CC3)CC2)c2ccccc21.O=C(O)C(F)(F)F,0.9793
CC(C)c1nccn1CCCNC(=O)c1ccc(-c2cccnc2)nc1,21.58
Cc1occc1-c1nc(-c2cccc(CN3CCOCC3)c2)no1,-59.62
CCn1cncc1CN(Cc1ccc(OC)cc1OC)CC1CCCO1.O=C(O)CC(O)(CC(=O)O)C(=O)O (stereo not given),6.986
COCCc1noc(CN2CCCC2c2noc(C)n2)n1 (stereo not given),-48.57
C/C=C(\C)CN(CCN1CCOCC1)Cc1ccco1,-0.5994
COCC(=O)N1CCC(c2nccn2CC2CC2)CC1,9.209
CNC(=O)C(C)NC(=O)c1cc(COc2ccc(OC)cc2Cl)[nH]n1 (stereo not given),-4.256
O=C(c1cccc(F)c1)N(CCCO)S(=O)(=O)c1cccs1,-6.392
Cc1cccc(CN(Cc2ccccc2)Cc2nccs2)n1,-4.593
Cc1cccc(CSc2nnc(C)n2CC(N)=O)c1,-17.35
COC(=O)CNC(=O)C1(NC(=O)c2ccc3[nH]ncc3c2)CCCC1,-36.03
CN(C)C(=O)CN1CCCC(c2cncc(-c3cccc(Cl)c3)n2)C1 (stereo not given),53.32

5 of the entries, repeated:

SMILES	percent effect
O=C(NC1CC1)C1=CC2(CCN(CC3CC3)CC2)c2ccccc21.O=C(O)C(F)(F)F	0.9793
[H][C@@]12C[C@H](NC(=O)c3nc4ccccc4[nH]3)CN1CCN(C)C2	1.105
CCc1oc(C(=O)NC(C)c2ncn[nH]2)cc1CN1CCCC1 (stereo not given)	-52.81
Cc1cccc(N2CCN(C(=O)CN3CCC(C(N)=O)CC3)CC2)c1	-46.42
COC(=O)CNC(=O)C1(NC(=O)c2ccc3[nH]ncc3c2)CCCC1	-36.03

Data taken from ChEMBL document CHEMBL3988442, “University of Dundee, Small-Polar-MMV Screening Library” (2021).